# Test results reported in the supplement of paper PMC4604168 (melanoma cell lines).
# The other results are listed elsewhere or left out. Single values are uncertain, as repeats are few or missing.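 Imaging used 1,536-well plates; nuclei positive for cleaved PARP by antibody were divided by total DNA-stained nuclei to yield the apoptosis fraction. Doses for screening kept most cells viable, and cell lines differ markedly in resting and induced cleaved-PARP levels.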
# How the values were obtained:
# Test in all cases: cleaved PARP positive nuclei fraction relative to DMSO control; melanoma cells; higher = more apoptosis
# Details in all cases: library dose: low library concentration; 72 h
# 501Mel = system: 501Mel
# A101D = system: A101D
# A2058 = system: A2058
# A375 = system: A375
# C32 = system: C32
# CBRC008 = system: CBRC008 (line from a melanoma biopsy)
# CBRC013 = system: CBRC013 (line from a melanoma biopsy)
# CBRC014 = system: CBRC014 (line from a melanoma biopsy)
# CBRC016 = system: CBRC016 (line from a melanoma biopsy)
# CBRC017 = system: CBRC017 (line from a melanoma biopsy)
# COLO792 = system: COLO792
# COLO800 = system: COLO800
# COLO829 = system: COLO829
# G361 = system: G361
# IPC-298 = system: IPC-298
# IST-MEL1 = system: IST-MEL1
# LB2518-MEL = system: LB2518-MEL
# MEL-HO = system: MEL-HO
# CBRC034 = system: CBRC034 (line from a melanoma biopsy)
# LOXIMVI = system: LOXIMVI
Structure (SMILES),cleaved PARP positive nuclei fraction (501Mel),cleaved PARP positive nuclei fraction (A101D),cleaved PARP positive nuclei fraction (A2058),cleaved PARP positive nuclei fraction (A375),cleaved PARP positive nuclei fraction (C32),cleaved PARP positive nuclei fraction (CBRC008),cleaved PARP positive nuclei fraction (CBRC013),cleaved PARP positive nuclei fraction (CBRC014),cleaved PARP positive nuclei fraction (CBRC016),cleaved PARP positive nuclei fraction (CBRC017),cleaved PARP positive nuclei fraction (COLO792),cleaved PARP positive nuclei fraction (COLO800),cleaved PARP positive nuclei fraction (COLO829),cleaved PARP positive nuclei fraction (G361),cleaved PARP positive nuclei fraction (IPC-298),cleaved PARP positive nuclei fraction (IST-MEL1),cleaved PARP positive nuclei fraction (LB2518-MEL),cleaved PARP positive nuclei fraction (MEL-HO),cleaved PARP positive nuclei fraction (CBRC034),cleaved PARP positive nuclei fraction (LOXIMVI)
"COc1cc([C@@H]2c3cc4c(cc3[C@@H](O[C@@H]3O[C@@H]5CO[C@@H](C)O[C@H]5[C@H](O)[C@H]3O)[C@H]3COC(=O)[C@H]23)OCO4)cc(OC)c1O [etoposide] + O=C(CCCCCCC(=O)Nc1ccccc1)NO [vorinostat] (first compound 0.02 µM, partner dose 0.08 µM)",84.4%,29.5%,171%,43.6%,22.3%,47.3%,148%,74.5%,110%,164%,85.8%,162%,132%,176%,88.9%,40.5%,89.8%,112%,–,–
"Cc1ccc(Nc2nccc(N(C)c3ccc4c(C)n(C)nc4c3)n2)cc1S(N)(=O)=O [Pazopanib] + O=C(O)[C@@H]1[O][Sb](=[O])([O][Sb]2(=[O])[O][C@H]([C@H](O)CO)[C@H](O)[C@H](C(=O)O)[O]2)[O][C@H]([C@H](O)CO)[C@@H]1O [stibogluconate] (first compound 0.4 µM, partner dose 2 µM)",91.3%,120%,91.7%,56.3%,91.2%,37.6%,–,124%,108%,145%,87.2%,89.6%,83.1%,89.7%,113%,129%,122%,33.1%,62.6%,41.9%
"Cc1ccc(Nc2nccc(N(C)c3ccc4c(C)n(C)nc4c3)n2)cc1S(N)(=O)=O [Pazopanib] + CCCCCCCCc1ccc(CCC(N)(CO)CO)cc1 [fingolimod] (first compound 0.4 µM, partner dose 2 µM)",92.5%,148%,67.3%,102%,141%,112%,–,104%,79.3%,126%,155%,182%,97.4%,78.8%,107%,135%,97.7%,135%,34.1%,164%
"N#CC[C@H](C1CCCC1)n1cc(-c2ncnc3[nH]ccc23)cn1 [ruxolitinib] + O=C(O)c1ccc2c(c1)nc(Nc1cccc(Cl)c1)c1ccncc12 [CX4945] (first compound 1 µM, partner dose 0.4 µM)",66.2%,104%,106%,81.6%,151%,250%,–,120%,391%,244%,103%,51.2%,101%,169%,181%,62.6%,157%,75.1%,194%,57.2%
"COc1cc([C@@H]2c3cc4c(cc3[C@@H](O[C@@H]3O[C@@H]5CO[C@@H](C)O[C@H]5[C@H](O)[C@H]3O)[C@H]3COC(=O)[C@H]23)OCO4)cc(OC)c1O [etoposide] + COc1cc(Nc2ncc(F)c(Nc3ccc4c(n3)NC(=O)C(C)(C)O4)n2)cc(OC)c1OC [Tamatinib] (first compound 0.02 µM, partner dose 0.4 µM)",46.3%,106%,130%,72%,82.7%,307%,104%,81.2%,60%,124%,105%,240%,–,115%,115%,151%,103%,159%,–,81.7%
"O=c1[nH]nc(Sc2ncc([N+](=O)[O-])s2)n1-c1ccc2c(c1)OCCO2 + C#Cc1cccc(Nc2ncnc3cc(OCCOC)c(OCCOC)cc23)c1 [erlotinib] (first compound 0.2 µM, partner dose 0.8 µM)",99.2%,284%,76.3%,87.6%,239%,174%,–,93.2%,69.9%,220%,184%,81.8%,50.6%,99.7%,46.6%,167%,104%,111%,76.3%,81.5%
"CC[C@]1(O)C[C@H]2CN(CCc3c([nH]c4ccccc34)[C@@](C(=O)OC)(c3cc4c(cc3OC)N(C=O)[C@H]3[C@@](O)(C(=O)OC)[C@H](OC(C)=O)[C@]5(CC)C=CCN6CC[C@]43[C@@H]65)C2)C1 [vincristine] + Nc1nc(F)nc2c1ncn2[C@@H]1O[C@H](CO)[C@@H](O)[C@@H]1O [fludarabine] (first compound 0.0001 µM, partner dose 0.2 µM)",11200%,159%,904%,4430%,116%,161%,–,104%,106%,99.6%,101%,52.1%,98.4%,182%,44.9%,158%,97.8%,95.1%,86.5%,21.5%
"Cc1cc(Nc2cc(N3CCN(C)CC3)nc(Sc3ccc(NC(=O)C4CC4)cc3)n2)n[nH]1 [Tozasertib] + O=C(CCCCCCC(=O)Nc1ccccc1)NO [vorinostat] (first compound 0.006 µM, partner dose 0.08 µM)",40%,160%,100%,117%,92.1%,66.3%,72.6%,97.2%,90.2%,128%,112%,166%,77.4%,54.3%,43.6%,81.4%,196%,29.4%,–,42.1%
"O=C(Nc1cc(C(F)(F)F)cc(C(F)(F)F)c1)c1cc(Cl)ccc1O + Cc1ccc(NC(=O)c2cccc(N(C)C)c2)cc1NC(=O)c1ccc(O)cc1 [ZM336372] (first compound 0.016 µM, partner dose 2 µM)",107%,88.6%,103%,76.4%,107%,55.7%,106%,113%,94.3%,101%,80.6%,49.8%,129%,103%,76.1%,37.2%,139%,73.9%,–,117%
"Cc1ccc(Nc2nccc(N(C)c3ccc4c(C)n(C)nc4c3)n2)cc1S(N)(=O)=O [Pazopanib] + CC(=O)c1c(C)c2cnc(Nc3ccc(N4CCNCC4)cn3)nc2n(C2CCCC2)c1=O [palbociclib] (first compound 0.4 µM, partner dose 0.04 µM)",226%,56.9%,78.6%,186%,91.8%,48.2%,–,156%,92.1%,114%,33.2%,82.1%,185%,96.2%,228%,44.6%,55.8%,105%,69.2%,89.5%
"N#CC[C@H](C1CCCC1)n1cc(-c2ncnc3[nH]ccc23)cn1 [ruxolitinib] + CC(=O)O[C@@]12CO[C@@H]1C[C@H](O)[C@@]1(C)C(=O)[C@H](O)C3=C(C)[C@@H](OC(=O)[C@H](O)[C@@H](NC(=O)OC(C)(C)C)c4ccccc4)C[C@@](O)([C@@H](OC(=O)c4ccccc4)[C@H]21)C3(C)C [Docetaxel] (first compound 1 µM, partner dose 0.0001 µM)",288%,57.9%,1580%,2150%,72.8%,738%,–,122%,371%,222%,465%,328%,179%,596%,255%,94.1%,433%,94.5%,67.7%,244%
"CC[C@]1(O)C[C@H]2CN(CCc3c([nH]c4ccccc34)[C@@](C(=O)OC)(c3cc4c(cc3OC)N(C=O)[C@H]3[C@@](O)(C(=O)OC)[C@H](OC(C)=O)[C@]5(CC)C=CCN6CC[C@]43[C@@H]65)C2)C1 [vincristine] + Cn1c(Nc2ccc(C(F)(F)F)cc2)nc2cc(Oc3ccnc(-c4ncc(C(F)(F)F)[nH]4)c3)ccc21 [CHIR265] (first compound 0.0001 µM, partner dose 0.08 µM)",476%,322%,3830%,871%,489%,57.7%,–,147%,148%,140%,126%,156%,137%,143%,281%,142%,208%,314%,126%,181%
"Cc1cc(Nc2cc(N3CCN(C)CC3)nc(Sc3ccc(NC(=O)C4CC4)cc3)n2)n[nH]1 [Tozasertib] + OCCn1cc(-c2cnc3nnn(Cc4ccc5ncccc5c4)c3n2)cn1 [PF04217903] (first compound 0.006 µM, partner dose 1 µM)",82.1%,87.7%,134%,77.8%,145%,149%,106%,88.5%,75.8%,78.9%,80.2%,88.9%,87%,153%,94.6%,51.3%,46%,84.3%,–,60.8%
"N#CC[C@H](C1CCCC1)n1cc(-c2ncnc3[nH]ccc23)cn1 [ruxolitinib] + CC(=O)c1c(C)c2cnc(Nc3ccc(N4CCNCC4)cn3)nc2n(C2CCCC2)c1=O [palbociclib] (first compound 1 µM, partner dose 0.04 µM)",125%,59.8%,98.7%,207%,86.6%,93.8%,–,125%,35%,114%,118%,60.3%,67.6%,176%,185%,283%,51.4%,145%,61.4%,179%
"COc1cc([C@@H]2c3cc4c(cc3[C@@H](O[C@@H]3O[C@@H]5CO[C@@H](C)O[C@H]5[C@H](O)[C@H]3O)[C@H]3COC(=O)[C@H]23)OCO4)cc(OC)c1O [etoposide] + CCCCCCCCc1ccc(CCC(N)(CO)CO)cc1 [fingolimod] (first compound 0.02 µM, partner dose 2 µM)",105%,97.8%,41.4%,440%,78.7%,42.6%,–,81.7%,130%,176%,61.6%,169%,63.9%,97.6%,48.4%,130%,52.8%,43.5%,139%,225%
"O=c1[nH]nc(Sc2ncc([N+](=O)[O-])s2)n1-c1ccc2c(c1)OCCO2 + Nc1ncn([C@H]2C[C@H](O)[C@@H](CO)O2)c(=O)n1 [decitabine] (first compound 0.2 µM, partner dose 0.1 µM)",93.2%,99.5%,188%,115%,74%,103%,–,104%,325%,114%,123%,84.8%,127%,92.9%,257%,101%,130%,179%,63.6%,152%

# 2 records picked at random from those above:
Structure (SMILES),cleaved PARP positive nuclei fraction (501Mel),cleaved PARP positive nuclei fraction (A101D),cleaved PARP positive nuclei fraction (A2058),cleaved PARP positive nuclei fraction (A375),cleaved PARP positive nuclei fraction (C32),cleaved PARP positive nuclei fraction (CBRC008),cleaved PARP positive nuclei fraction (CBRC013),cleaved PARP positive nuclei fraction (CBRC014),cleaved PARP positive nuclei fraction (CBRC016),cleaved PARP positive nuclei fraction (CBRC017),cleaved PARP positive nuclei fraction (COLO792),cleaved PARP positive nuclei fraction (COLO800),cleaved PARP positive nuclei fraction (COLO829),cleaved PARP positive nuclei fraction (G361),cleaved PARP positive nuclei fraction (IPC-298),cleaved PARP positive nuclei fraction (IST-MEL1),cleaved PARP positive nuclei fraction (LB2518-MEL),cleaved PARP positive nuclei fraction (MEL-HO),cleaved PARP positive nuclei fraction (CBRC034),cleaved PARP positive nuclei fraction (LOXIMVI)
"COc1cc([C@@H]2c3cc4c(cc3[C@@H](O[C@@H]3O[C@@H]5CO[C@@H](C)O[C@H]5[C@H](O)[C@H]3O)[C@H]3COC(=O)[C@H]23)OCO4)cc(OC)c1O [etoposide] + O=C(CCCCCCC(=O)Nc1ccccc1)NO [vorinostat] (first compound 0.02 µM, partner dose 0.08 µM)",84.4%,29.5%,171%,43.6%,22.3%,47.3%,148%,74.5%,110%,164%,85.8%,162%,132%,176%,88.9%,40.5%,89.8%,112%,–,–
"Cc1cc(Nc2cc(N3CCN(C)CC3)nc(Sc3ccc(NC(=O)C4CC4)cc3)n2)n[nH]1 [Tozasertib] + O=C(CCCCCCC(=O)Nc1ccccc1)NO [vorinostat] (first compound 0.006 µM, partner dose 0.08 µM)",40%,160%,100%,117%,92.1%,66.3%,72.6%,97.2%,90.2%,128%,112%,166%,77.4%,54.3%,43.6%,81.4%,196%,29.4%,–,42.1%
